The subject of experiment [1] is MEPP (mouse ovarian epithelium Trp53/Pten KO). In words: cell viability relative to untreated (fraction); higher = less growth inhibition. Conditions: 5 µM; 3 days.
Experiment [2] has as its system PREPP (mouse prostate epithelium Trp53/Pten KO). The description is as above. Conditions: 5 µM; 3 days.

Several values for one entry are separate records, joined by “and”; a condition that tells them apart may be missing. Equal values may be shown once. This is one part of the list. Repeats are few or missing, and single values can be far off.

Turning to `O=[N+]([O-])c1ccc(O)cc1`, the cell viability in experiment [1] was 1.07; in experiment [2], 0.877.
For `CN1CCN(c2cc3c(cc2F)c(=O)c(C(=O)O)cn3-c2ccc(F)cc2)CC1` the same measures were 1.12 and 0.803.
For the compound `CC/C=C\C/C=C\C/C=C\C/C=C\C/C=C\C/C=C\CCC(=O)O`, the cell viability in experiment [1] came to 1.13; in experiment [2], 0.81.
Turning to `CO/N=C(\C(=O)N[C@@H]1C(=O)N2C(C(=O)[O-])=C(C[N+]3(C)CCCC3)CS[C@H]12)c1csc(N)n1`, the figures for the cell viability in experiment [1] and in experiment [2] were 0.784 and 0.967, respectively.
Turning to `Nc1ncnc2c1ncn2[C@@H]1O[C@H](CO)C[C@H]1O`, the figures for the cell viability in experiment [1] and in experiment [2] were 0.885 and 1.22, respectively.
Regarding `C[C@H]1O[C@@H](O[C@H]2CC[C@@]3(C)[C@@H](CC[C@]4(C)[C@@H]3C=C[C@]35OC[C@@]6(CCC(C)(C)C[C@H]63)[C@@H](O)C[C@]54C)[C@]2(C)CO)[C@H](O)[C@@H](O[C@@H]2O[C@H](CO)[C@@H](O)[C@H](O)[C@H]2O)[C@H]1O`, the cell viability in experiment [1] was determined as 0.363; in experiment [2], 0.871.
`NC(CO)C(=O)O` (stereo unspecified): the cell viability in experiment [1] amounted to 1.52; in experiment [2] it was 0.996.
For `CC1=CC[C@@](O)(C(C)C)CC1` the same measures were 1.16 and 1.02.
Turning to `CC(CC(=O)O)CC(=O)O`, the cell viability in experiment [1] worked out at 1.22; in experiment [2] it was 0.98.
The matching figures for `C[C@H](CCCC(C)(C)O)[C@H]1CC[C@H]2[C@@H]3CC=C4C[C@@H](O)CC[C@]4(C)[C@H]3CC[C@]12C`: 1.07 and 0.842.
Turning to `N=C(N/N=C/c1ccc(Cl)cc1)N/N=C/c1ccc(Cl)cc1`, the cell viability in experiment [1] is 1.11; in experiment [2], 0.849.
For `O=c1ccc2ccc(O)cc2o1` the same measures were 0.851 and 0.93.
With `CCCOC(=O)c1ccc(O)cc1`, the cell viability in experiment [1] was 1.49; in experiment [2], 0.944.
For `NC(=S)c1ccncc1` the same measures were 1.05 and 0.808.
As for `COc1cc(O)c2c(=O)c(O[C@@H]3O[C@H](CO)[C@@H](O)[C@H](O)[C@H]3O)c(-c3ccc(O[C@@H]4O[C@H](CO)[C@@H](O)[C@H](O)[C@H]4O)cc3)oc2c1`, the figures for the cell viability in experiment [1] and in experiment [2] were 1.38 and 0.966, respectively.
For `CCOC(=O)c1c(C)n(C)c2ccc(O)cc12` the same measures were 1.01 and 0.89.
As to `[Cl][Mn][Cl]`, the cell viability in experiment [1] stood at 1.04; in experiment [2] it was 0.913.
Consider `CC(C)(Sc1cc(C(C)(C)C)c(O)c(C(C)(C)C)c1)Sc1cc(C(C)(C)C)c(O)c(C(C)(C)C)c1`, for which the values for the cell viability in experiment [1] and in experiment [2] were 0.884 and 0.821, respectively.
The matching figures for `COC(=O)[C@@H]1[C@H]2C[C@H]3c4[nH]c5ccccc5c4CCN3C[C@@H]2CC[C@@H]1O`: 1.19 and 1.08.
As to `CCCCCCOC(=O)NC(=N)c1ccc(NCc2nc3cc(C(=O)N(CCC(=O)OCC)c4ccccn4)ccc3n2C)cc1`, the cell viability in experiment [1] was determined as 1.01; in experiment [2], 0.919.
For `Nc1nc2c(ncn2[C@@H]2O[C@H](COP(=O)(O)O)[C@@H](O)[C@H]2O)c(=O)[nH]1` the same measures were 0.942 and 0.87.
Take `Cc1ccc(Sc2ccccc2N2CCNCC2)c(C)c1`: the cell viability in experiment [1] came to 1; in experiment [2], 0.73.
Consider `OCC1OC(O)CC(O)C1O` (stereo unspecified), for which the cell viability stood at 0.991 in experiment [1] and 0.894 in experiment [2].
As for `COc1ccc(-c2coc3cc(O)cc(O)c3c2=O)cc1`, the cell viability in experiment [1] turned out to be 1.25; in experiment [2], 0.953.
On to `O=C(O)c1ccc2c(c1)C(=O)c1ccccc1C2=O`, for which the cell viability in experiment [1] was found to be 0.961; in experiment [2], 1.14.
Turning to `CC(=O)c1ccccc1`, the values for the cell viability in experiment [1] and in experiment [2] were 0.843 and 0.948, respectively.
Turning to `CC(=O)OCc1ccccc1`, the cell viability was found to be 1.06 in experiment [1] and 0.89 in experiment [2].
For the compound `CC(C(=O)O)c1ccccc1` (stereo unspecified), the cell viability in experiment [1] was 0.947; in experiment [2], 0.953.
For `C=C1CCC[C@]2(C)C[C@@H]3OC(=O)C(C)=C3C[C@@H]12`, the cell viability in experiment [1] was 1.13; in experiment [2], 0.946.
The matching figures for `COc1ccc2cc1Oc1ccc(cc1)C[C@H]1c3c(cc4c(c3Oc3cc5c(cc3OC)CCN(C)[C@@H]5C2)OCO4)CCN1C`: 0.788 and 0.709.
In the case of `CO/N=C(\C(=O)N[C@@H]1C(=O)N2C(C(=O)O)=C(CSc3nc(=O)c(O)nn3C)CS[C@H]12)c1csc(N)n1`, the cell viability in experiment [1] is 1.36; in experiment [2], 1.03.
For `CO/N=C(\C(=O)N[C@@H]1C(=O)N2C(C(=O)OCOC(=O)C(C)(C)C)=C(/C=C\c3scnc3C)CS[C@H]12)c1csc(N)n1` the same measures were 1.01 and 0.909.
With `COc1ccc2cc3[n+](cc2c1O)CCc1cc2c(cc1-3)OCO2`, the cell viability in experiment [1] worked out at 1.23; in experiment [2] it was 0.823.
As for `CC(=O)N[C@@H](CCC(=O)O)C(=O)O`, the results for the cell viability in experiment [1] and in experiment [2] were 1.04 and 0.903, respectively.
For `CCC(=O)OCC(=O)[C@@]1(OC(=O)CC)[C@@H](C)C[C@H]2[C@@H]3CCC4=CC(=O)C=C[C@]4(C)[C@@]3(F)[C@@H](O)C[C@@]21C` the same measures were 0.985 and 0.831.
With `CCCCCCCCCCCCCC(=O)O`, the cell viability in experiment [1] amounted to 0.984; in experiment [2], 0.858.
For the compound `O=[N+]([O-])c1ccc(O)c2ncccc12`, the cell viability in experiment [1] worked out at 0.722; in experiment [2], 0.631.
As for `COc1ccc2c3c1O[C@H]1C[C@@H](O)C=C[C@@]31CCN(C)C2`, the cell viability in experiment [1] is 1.2 and 1.14; in experiment [2], 0.742 and 0.86.

The values above are taken from the supplement of paper PMC12873370.
